Laboratory results reported in paper PMC10333326.
These are yes or no findings as the source states them, for the method shown. Binding seen in cells or lysates may run through a third protein. Some entries that bind do so weakly or less than the wild type.

Protein sequences, listed by entry. Tags and fused reporters are not part of them. Lines headed by an entry give the natural chain unless they say otherwise; changes in a name come on top.
UniProt O94916: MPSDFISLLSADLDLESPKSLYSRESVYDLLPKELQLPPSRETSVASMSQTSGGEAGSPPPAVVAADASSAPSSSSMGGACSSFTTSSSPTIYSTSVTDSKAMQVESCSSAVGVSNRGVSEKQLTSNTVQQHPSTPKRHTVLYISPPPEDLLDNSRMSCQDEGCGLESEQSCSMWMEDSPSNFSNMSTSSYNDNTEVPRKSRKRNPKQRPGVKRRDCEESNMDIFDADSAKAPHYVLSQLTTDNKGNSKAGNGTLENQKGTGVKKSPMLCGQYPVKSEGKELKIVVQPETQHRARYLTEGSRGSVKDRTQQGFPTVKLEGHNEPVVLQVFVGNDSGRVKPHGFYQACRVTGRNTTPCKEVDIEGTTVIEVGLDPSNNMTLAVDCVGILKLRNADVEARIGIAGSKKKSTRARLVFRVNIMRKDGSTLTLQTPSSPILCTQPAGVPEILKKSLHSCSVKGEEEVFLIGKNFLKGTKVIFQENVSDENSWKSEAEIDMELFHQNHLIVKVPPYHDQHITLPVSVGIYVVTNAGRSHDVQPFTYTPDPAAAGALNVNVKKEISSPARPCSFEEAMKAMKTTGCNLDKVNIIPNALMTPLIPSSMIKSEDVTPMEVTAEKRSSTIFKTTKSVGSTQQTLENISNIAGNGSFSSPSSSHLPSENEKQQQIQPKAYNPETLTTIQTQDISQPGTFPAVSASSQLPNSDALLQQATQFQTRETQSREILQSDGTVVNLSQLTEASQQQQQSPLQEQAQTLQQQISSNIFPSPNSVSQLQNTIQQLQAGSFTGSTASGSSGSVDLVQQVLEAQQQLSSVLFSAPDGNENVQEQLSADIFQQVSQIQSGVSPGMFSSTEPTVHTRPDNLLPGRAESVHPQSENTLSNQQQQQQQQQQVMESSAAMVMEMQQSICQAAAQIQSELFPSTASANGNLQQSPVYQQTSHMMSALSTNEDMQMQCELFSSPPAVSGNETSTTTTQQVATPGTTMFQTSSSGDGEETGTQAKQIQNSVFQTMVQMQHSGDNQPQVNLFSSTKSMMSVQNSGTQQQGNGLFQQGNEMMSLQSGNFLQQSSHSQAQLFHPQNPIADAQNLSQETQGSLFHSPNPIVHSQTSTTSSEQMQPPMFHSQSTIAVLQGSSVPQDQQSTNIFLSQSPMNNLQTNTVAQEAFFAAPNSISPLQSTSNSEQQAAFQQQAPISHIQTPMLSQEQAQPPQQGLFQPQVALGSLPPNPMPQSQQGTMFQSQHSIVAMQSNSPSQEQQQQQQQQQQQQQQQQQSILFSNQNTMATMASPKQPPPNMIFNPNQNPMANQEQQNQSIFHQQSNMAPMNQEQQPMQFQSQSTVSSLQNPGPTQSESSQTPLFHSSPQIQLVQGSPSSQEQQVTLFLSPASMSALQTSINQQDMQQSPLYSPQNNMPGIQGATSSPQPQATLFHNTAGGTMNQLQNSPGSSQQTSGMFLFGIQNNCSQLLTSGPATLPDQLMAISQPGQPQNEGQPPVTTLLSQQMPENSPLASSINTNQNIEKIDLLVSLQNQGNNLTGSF
UniProt Q92783: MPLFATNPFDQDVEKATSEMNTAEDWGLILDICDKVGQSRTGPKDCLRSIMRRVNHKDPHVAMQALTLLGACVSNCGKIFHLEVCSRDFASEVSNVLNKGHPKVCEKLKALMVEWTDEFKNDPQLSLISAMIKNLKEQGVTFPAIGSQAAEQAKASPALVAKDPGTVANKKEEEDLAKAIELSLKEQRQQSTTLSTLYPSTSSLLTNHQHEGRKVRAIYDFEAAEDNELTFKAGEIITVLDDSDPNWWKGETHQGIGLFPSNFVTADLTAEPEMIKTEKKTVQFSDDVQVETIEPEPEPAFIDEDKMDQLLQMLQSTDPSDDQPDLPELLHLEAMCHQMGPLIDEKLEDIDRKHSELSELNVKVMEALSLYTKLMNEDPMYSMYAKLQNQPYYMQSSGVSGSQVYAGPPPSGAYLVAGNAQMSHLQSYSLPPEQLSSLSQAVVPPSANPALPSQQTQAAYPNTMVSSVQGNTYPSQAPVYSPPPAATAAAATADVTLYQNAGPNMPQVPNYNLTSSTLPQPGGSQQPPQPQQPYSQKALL
UniProt Q14974: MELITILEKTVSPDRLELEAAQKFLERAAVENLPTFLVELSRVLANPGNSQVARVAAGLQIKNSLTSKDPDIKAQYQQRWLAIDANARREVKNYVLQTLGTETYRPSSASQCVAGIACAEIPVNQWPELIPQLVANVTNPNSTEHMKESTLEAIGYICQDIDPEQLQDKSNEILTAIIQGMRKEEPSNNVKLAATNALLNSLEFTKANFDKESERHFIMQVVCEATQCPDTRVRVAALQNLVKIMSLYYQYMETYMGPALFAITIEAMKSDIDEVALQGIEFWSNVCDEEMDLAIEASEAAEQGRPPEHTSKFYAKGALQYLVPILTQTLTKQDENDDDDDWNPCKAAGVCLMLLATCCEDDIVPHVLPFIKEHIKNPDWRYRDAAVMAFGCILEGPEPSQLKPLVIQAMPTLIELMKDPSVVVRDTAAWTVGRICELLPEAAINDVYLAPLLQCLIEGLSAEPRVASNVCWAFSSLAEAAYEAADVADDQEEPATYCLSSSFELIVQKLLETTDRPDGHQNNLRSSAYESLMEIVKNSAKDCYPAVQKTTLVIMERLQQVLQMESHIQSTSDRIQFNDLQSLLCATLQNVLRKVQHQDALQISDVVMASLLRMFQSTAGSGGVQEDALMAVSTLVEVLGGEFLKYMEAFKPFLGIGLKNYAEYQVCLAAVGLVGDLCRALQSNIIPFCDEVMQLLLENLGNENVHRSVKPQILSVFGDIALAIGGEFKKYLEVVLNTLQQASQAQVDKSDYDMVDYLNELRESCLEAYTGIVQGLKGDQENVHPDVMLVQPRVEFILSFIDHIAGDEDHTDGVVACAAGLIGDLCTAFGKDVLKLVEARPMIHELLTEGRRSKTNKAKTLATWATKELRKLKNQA

Tests used:
[1] = biological target: Tonicity-responsive enhancer binding protein (NFAT5), endogenous (human (endogenous in U87/EGFR, U251, U87/EGFRvIII)) (UniProt O94916); assay: co-IP; lysates of TRAF6-overexpressing cells (NFAT5 WT or K668R cells), with or without EGF, with or without EZH2 transfection
[2] = biological target: Flag-tagged NFAT5 K668R mutant (human) (UniProt O94916); assay: co-IP; lysates of U87/EGFR or U251 cells stably expressing NFAT5 WT, K668R or K616R, with or without EGF (also an EGF time course after serum starvation); primary antibody overnight at 4 °C, Protein A/G Sepharose beads
[3] = biological target: Flag-tagged NFAT5 wild-type (human) (UniProt O94916); assay: as above
[4] = biological target: Tonicity-responsive enhancer binding protein (NFAT5), endogenous (human (endogenous in U87/EGFR, U251, U87/EGFRvIII)) (UniProt O94916); assay: co-IP; endogenous proteins in U87/EGFR and U251 cell lysates; primary antibody overnight at 4 °C, Protein A/G Sepharose beads 2 h, immunoblot; also cells with shEZH2 or DZNep
[5] = biological target: Flag-tagged NFAT5 wild-type (human) (UniProt O94916); assay: co-IP; lysates of TRAF6-overexpressing cells (NFAT5 WT or K668R cells), with or without EGF, with or without EZH2 transfection
[6] = biological target: Tonicity-responsive enhancer binding protein (NFAT5), endogenous (human (endogenous in U87/EGFR, U251, U87/EGFRvIII)) (UniProt O94916); assay: co-IP; tumours from U87/EGFRvIII orthotopic xenografts of mice treated with TMZ, DZNep, alone or in combination; the method is not named for this panel
[7] = biological target: Tonicity-responsive enhancer binding protein (NFAT5), endogenous (human (endogenous in U87/EGFR, U251, U87/EGFRvIII)) (UniProt O94916); assay: co-IP; lysates of cells expressing EZH2 WT or S21A, with or without EGF; primary antibody overnight at 4 °C, Protein A/G Sepharose beads

binding [1]	binding [2]	binding [3]	binding [4]	binding [5]	binding [6]	binding [7]	Substance
binds	binds	binds					STAM1, endogenous (from UniProt Q92783 1-540)
		binds	binds	binds	binds	binds	importin β1 (IMB1), endogenous (from UniProt Q14974 1-876)
